The results in this text go back to article PMC7521518.

Sequences of proteins named here, by UniProt entry; tags and fusion partners are left off.
UniProt Q13485: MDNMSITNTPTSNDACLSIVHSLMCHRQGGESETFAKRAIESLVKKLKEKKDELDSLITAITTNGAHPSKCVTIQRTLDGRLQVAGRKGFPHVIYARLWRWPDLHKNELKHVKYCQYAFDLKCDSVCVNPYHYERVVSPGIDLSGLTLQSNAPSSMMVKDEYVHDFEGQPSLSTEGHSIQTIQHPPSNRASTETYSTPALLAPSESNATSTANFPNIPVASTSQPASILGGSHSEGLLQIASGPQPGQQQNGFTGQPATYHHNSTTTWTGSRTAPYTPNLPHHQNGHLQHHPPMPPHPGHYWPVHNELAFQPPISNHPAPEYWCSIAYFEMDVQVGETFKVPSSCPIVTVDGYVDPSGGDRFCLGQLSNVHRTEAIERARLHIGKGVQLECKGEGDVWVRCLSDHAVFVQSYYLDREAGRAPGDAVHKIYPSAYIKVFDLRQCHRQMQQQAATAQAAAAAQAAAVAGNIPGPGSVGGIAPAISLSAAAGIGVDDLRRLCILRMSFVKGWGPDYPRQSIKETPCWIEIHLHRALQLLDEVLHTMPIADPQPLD

Results are given in words; binding and its absence hold for the method and conditions named. In cells and extracts the contact can be indirect. Some binding calls cover weakened binding; strength is not graded here.

For experiment [1], the target named is T1, DUSP4 protein (over-expressed in HCT116 cells) (UniProt Q13115).
T1 sequence: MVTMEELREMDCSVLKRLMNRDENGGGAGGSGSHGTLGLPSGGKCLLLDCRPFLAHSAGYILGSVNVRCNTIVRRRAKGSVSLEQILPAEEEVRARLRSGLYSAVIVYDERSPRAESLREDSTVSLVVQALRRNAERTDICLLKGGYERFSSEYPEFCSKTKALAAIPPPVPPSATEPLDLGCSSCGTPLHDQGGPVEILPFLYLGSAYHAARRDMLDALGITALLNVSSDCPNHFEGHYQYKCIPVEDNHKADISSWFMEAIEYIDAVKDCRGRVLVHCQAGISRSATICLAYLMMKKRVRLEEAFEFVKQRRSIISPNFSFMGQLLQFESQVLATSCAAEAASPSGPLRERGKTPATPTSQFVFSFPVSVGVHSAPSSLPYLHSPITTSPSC
In words: co-IP; forward and reverse co-IP in lysate (RIPA buffer) of DUSP4 over-expressed HCT116 cells; antibody-conjugated magnetic beads incubated with lysate 1 hour at room temperature.

The target of experiment [2] is Smad4 protein (human (endogenous in SW480 and HCT116)) (UniProt Q13485). In words: co-IP; SW480 cell lysate (RIPA buffer); antibody-conjugated magnetic beads incubated with lysate 1 hour at room temperature; which protein was precipitated is not told.
For experiment [3] the target is unchanged. Description: co-IP; forward and reverse co-IP in lysate (RIPA buffer) of DUSP4 over-expressed HCT116 cells; antibody-conjugated magnetic beads incubated with lysate 1 hour at room temperature.

For “Smad4 protein (from UniProt Q13485 1-552)”, the binding result in experiment [1] is reported as “binds”.

B1: DUSP4 protein (protein, UniProt Q13115 1-394)
chain: MVTMEELREMDCSVLKRLMNRDENGGGAGGSGSHGTLGLPSGGKCLLLDCRPFLAHSAGYILGSVNVRCNTIVRRRAKGSVSLEQILPAEEEVRARLRSGLYSAVIVYDERSPRAESLREDSTVSLVVQALRRNAERTDICLLKGGYERFSSEYPEFCSKTKALAAIPPPVPPSATEPLDLGCSSCGTPLHDQGGPVEILPFLYLGSAYHAARRDMLDALGITALLNVSSDCPNHFEGHYQYKCIPVEDNHKADISSWFMEAIEYIDAVKDCRGRVLVHCQAGISRSATICLAYLMMKKRVRLEEAFEFVKQRRSIISPNFSFMGQLLQFESQVLATSCAAEAASPSGPLRERGKTPATPTSQFVFSFPVSVGVHSAPSSLPYLHSPITTSPSC
For the molecule B1, the binding entry in experiment [2] was “binds”.

B2: DUSP4 protein (over-expressed in HCT116 cells) (protein, UniProt Q13115 1-394)
chain: MVTMEELREMDCSVLKRLMNRDENGGGAGGSGSHGTLGLPSGGKCLLLDCRPFLAHSAGYILGSVNVRCNTIVRRRAKGSVSLEQILPAEEEVRARLRSGLYSAVIVYDERSPRAESLREDSTVSLVVQALRRNAERTDICLLKGGYERFSSEYPEFCSKTKALAAIPPPVPPSATEPLDLGCSSCGTPLHDQGGPVEILPFLYLGSAYHAARRDMLDALGITALLNVSSDCPNHFEGHYQYKCIPVEDNHKADISSWFMEAIEYIDAVKDCRGRVLVHCQAGISRSATICLAYLMMKKRVRLEEAFEFVKQRRSIISPNFSFMGQLLQFESQVLATSCAAEAASPSGPLRERGKTPATPTSQFVFSFPVSVGVHSAPSSLPYLHSPITTSPSC
Regarding B2, the binding entry in experiment [3] is listed as “binds”.
